Results reported in PubChem BioAssay AID504444 (National Center for Advancing Translational Sciences (NCATS), 2011).
About 7,500 (2.1%) of roughly 360,000 compounds were called active. Inconclusive results, whose numbers are uncertain, are shown with a selection of clear calls. The call rests on the fitted dose curve; in most records, active means well fitted inhibition curve with a large enough effect; inconclusive means small, poorly fitted or top-dose-only effect, or effect the other way; inactive means flat fitted curve, though single readings scatter. A potency beside an inconclusive call is a rough fit, not a confirmed value.

Assay: Nrf2 qHTS screen for inhibitors; further: nearly all actives have a fitted effect of over 60% in size
Conditions: A549 ARE-Fluc reporter, luciferase luminescence, 18-24 h; series mostly up to 46 µM
Summary of the method: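 Concentration-response testing used A549 ARE_Fluc cells at 5000 cells/well. Following an 18-24 h compound incubation, viability was read by fluorescence (Ex 405/Em 525) and luciferase output by luminescence.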
Potency means the concentration at half of the fitted maximal effect.

Row | Structure (SMILES) | Potency
1 | CCCC(=O)NC(c1ccco1)c1cc(Cl)c2cccnc2c1O (stereo not given) | inconclusive: 20.6 µM [falling, single point]
2 | CCOCCCNC(=S)N1CCCN(c2nc3c(C)c(C)ccc3cc2C#N)CC1 | inconclusive: 16.4 µM [falling, partial curve, poor fit]
3 | CN(CC(=O)Nc1cccc(F)c1)C(=O)c1ccc(C(=O)c2ccccc2)cc1 | inconclusive: 16.4 µM [falling, single point]
4 | NC(=O)c1ccccc1NC(=O)c1cccc(C(=O)Nc2ccccc2C(N)=O)n1 | inconclusive: 11.6 µM [activator, partial curve, poor fit]
5 | COc1ccc(CCNC(=O)/C(C#N)=C2\N=C(NC(=O)c3ccco3)c3ccccc32)cc1 | inactive
6 | Cc1cc(Br)c2c(c1)=C(c1sc(N3CCCCCC3)nc1O)C(=O)N=2 | inconclusive: 13 µM [activator, partial curve]
7 | CCCC(C)C(=O)Nc1nc(C)c(-c2csc(Nc3cc(Cl)ccc3C)n2)s1 (stereo not given) | active: 23.1 µM
8 | CC(=O)C1=C(C)NC(SCC(=O)c2ccc(Cl)c(Cl)c2)=C(C#N)C1c1ccco1 (stereo not given) | inconclusive: 1.3 µM [falling, full curve, poor fit]
9 | O=C(Nc1cccc(NC(=O)c2cccc(F)c2)c1)c1ccccc1 | inactive
10 | CCOC(=O)c1cnc2ccc(C(=O)OC)cc2c1Nc1ccccc1CC | inconclusive: 7.31 µM [falling, partial curve]
11 | COc1ccc(C(=O)N(Cc2ccccc2)c2cccc(C)c2)cc1S(=O)(=O)N1CCOCC1 | inconclusive: 11.6 µM [falling, partial curve]
12 | O=[N+]([O-])c1cccc2ccc(/C=C/c3ccc(F)cc3)nc12 | inconclusive: 6.51 µM [activator, full curve, poor fit]
13 | Cc1cccc(C(C)C)c1NC(=O)c1ccc(OCC2CCCO2)cc1 (stereo not given) | inconclusive: 23.1 µM [falling, single point]
14 | COc1ccc(NC(=O)c2cc(Br)c(Br)s2)cn1 | inconclusive: 4.61 µM [activator, single point]
15 | O=c1[nH]c2c(s1)C(c1ccco1)C1C3CCC(C3)C1S2 (stereo not given) | inactive
16 | Cc1cccc(-c2noc(Cc3ccccc3)n2)c1 | inconclusive: 18.4 µM [activator, single point]
17 | Cc1cccc(NC(=O)/C=C/c2cccs2)n1 | inconclusive: 0.291 µM [activator, full curve, poor fit]
18 | COc1ccc(NC(=O)c2cc(-c3ccccc3Cl)no2)cc1 | inconclusive: 4.11 µM [falling, partial curve, poor fit]
19 | CCOCCCNC(=O)c1ccc(CS(=O)(=O)Cc2cccc(C)c2)o1 | inconclusive: 0.0041 µM [falling, full curve, poor fit]
20 | O=C(NCc1ccc2c(c1)OCO2)Nc1ccc(F)cc1 | inactive
21 | CCOc1cc(/C=N/NC(=O)COc2cccc(C)c2)ccc1OC(=O)c1cccs1 | inconclusive: 8.2 µM [falling, partial curve, poor fit]
22 | COc1ccc2nc(NC(=O)c3ccccc3O)sc2c1 | inconclusive: 29.1 µM [falling, single point]

Row | Structure (SMILES) | Potency
23 | CCOCc1nnc(NC(=O)c2ccc3c(c2)OCO3)s1 | inconclusive: 9.2 µM [activator, partial curve]
24 | CC(C)Oc1ccc(CNC(=O)c2ccc(NC(=O)N3CCSc4ncccc43)cc2)cc1 | inconclusive: 16.4 µM [falling, partial curve, poor fit]
25 | COCCCNC(=S)N(Cc1cccnc1)Cc1ccc(OC)c(OC)c1 | inactive
26 | Cc1nc(Cl)c(C(=O)NCc2ccccc2)c(C)c1Cl | inconclusive: 0.0065 µM [falling, partial curve, poor fit]
27 | COc1ccc(Br)c2c1C(=O)CC2 | inconclusive: 29.1 µM [activator, single point]
28 | COc1ccc2nc(NC(=O)C3CCN(S(=O)(=O)c4cccs4)CC3)sc2c1 | inconclusive: 23.1 µM [falling, partial curve, poor fit]
29 | Clc1ccc(Nc2nc(-c3cccs3)cs2)nc1 | inconclusive: 0.731 µM [activator, partial curve, poor fit]
30 | Cc1n[nH]c(C)c1S(=O)(=O)N1CCCC(C(=O)Nc2ccc(Cl)cc2)C1 (stereo not given) | inconclusive: 23.1 µM [falling, single point]
31 | CC(=O)Nc1ccc(CCCCc2ccccc2)cc1 | inconclusive: 20.6 µM [activator, single point]
32 | Cc1ccc(C(=O)NCCC2=CCCCC2)cc1S(=O)(=O)N1CCCCC1 | active: 23.1 µM
33 | CCN(C(=O)Cn1cc(S(=O)(=O)Cc2ccccc2Cl)c2ccccc21)c1ccccc1 | inconclusive: 5.17 µM [falling, partial curve, poor fit]
34 | Cc1ccc(C)c(N2CCN(C(=O)Cn3c(-c4cccs4)cc4ccccc43)CC2)c1 | inactive
35 | CN(C)c1ccc2nc3ccc(=[N+](C)C)cc-3sc2c1 | active: 11.6 µM
36 | COc1ccc(-c2cc(=O)n(-c3nc4ccccc4[nH]3)[nH]2)cc1 | inconclusive: 10.3 µM [falling, partial curve, poor fit]
37 | COc1cc(/C=C/C(=O)N2CCC=CC2=O)cc(OC)c1OC | inconclusive: 29.1 µM [falling, single point]
38 | COC(=O)/C=C/c1ccc(-n2ccnc2)cc1 | inconclusive: 14.6 µM [activator, partial curve]
39 | CCOC(=O)N1CCN(S(=O)(=O)c2ccc(OCC)c3ccccc23)CC1 | inconclusive: 29.1 µM [falling, partial curve, poor fit]
40 | CCOC(=O)c1ccc(NC(=O)C(CC)Sc2nc3ncccc3o2)cc1 (stereo not given) | inconclusive: 14.6 µM [activator, partial curve]
41 | Cc1ccc(NC2=C(C(=O)c3ccccc3)N(C)S(=O)(=O)c3ccccc32)cc1 | inconclusive: 16.4 µM [falling, single point]
42 | Cn1ccc(NC(=O)Nc2cccc([N+](=O)[O-])c2)n1 | inconclusive: 20.6 µM [activator, single point]
43 | COc1ccc(C(=O)Nc2nc3c(s2)CCc2cc(OC)ccc2-3)cc1 | inconclusive: 18.4 µM [falling, single point]
44 | N#CCc1c(C#N)c(N)nc(N2CCN(c3ccc(F)cc3)CC2)c1C#N | inconclusive: 5.8 µM [falling, full curve, poor fit]

Grouped by structure: those above with an NH in an aromatic ring.
Row | Structure (SMILES) | Potency
15 | O=c1[nH]c2c(s1)C(c1ccco1)C1C3CCC(C3)C1S2 (stereo not given) | inactive
30 | Cc1n[nH]c(C)c1S(=O)(=O)N1CCCC(C(=O)Nc2ccc(Cl)cc2)C1 (stereo not given) | inconclusive: 23.1 µM [falling, single point]
36 | COc1ccc(-c2cc(=O)n(-c3nc4ccccc4[nH]3)[nH]2)cc1 | inconclusive: 10.3 µM [falling, partial curve, poor fit]

Further structures follow:

Row | Structure (SMILES) | Potency
45 | O=C(CNC(=O)C1CCCCC1)OCC(=O)c1ccc(Cl)s1 | inconclusive: 29.1 µM [activator, single point]
46 | COc1cccc2[nH]c3c(N4CCCCC4)ncnc3c12 | inconclusive: 7.31 µM [activator, partial curve, poor fit]
47 | O=C(Nc1ccccc1Cl)OC1CCCCC1 | inconclusive: 20.6 µM [activator, single point]
48 | CC1CCN(Cc2c(C(=O)N/N=C/c3ccc(C(C)(C)C)cc3)nnn2-c2nonc2N)CC1 | inconclusive: 18.4 µM [falling, single point]
49 | CCC(Oc1ccccc1OC)C(=O)Nc1ccc2c(c1)n(C)c(=O)n2C (stereo not given) | inconclusive: 13 µM [falling, partial curve, poor fit]
50 | CCN(CC)C(=S)SCC(=O)Nc1ccc(F)cc1 | inactive
51 | COc1cc(CN2C(=O)C(NC(=O)c3ccco3)(C(F)(F)F)C3=C2CC(C)(C)CC3=O)cc(OC)c1 (stereo not given) | inactive
52 | CCN1CCN(S(=O)(=O)c2ccc(Cl)c(C(=O)NCc3ccco3)c2)CC1 | inactive
53 | Cc1ccc(C)c(Nc2nn3c(=O)c4ccc(C(=O)NCCc5ccccc5)cc4nc3s2)c1 | inconclusive: 29.1 µM [activator, single point]
54 | CC[C@H](C)[C@@H](CN[C@H](C)CNC)NCCC(c1ccccc1)c1ccccc1 | inactive
55 | CCOC(=O)Nc1nnc(-c2ccccc2OC)s1 | inconclusive: 29.1 µM [activator, single point]
56 | O=C(CC1SC(N2CCCCC2)=NC1=O)Nc1cccc(C(F)(F)F)c1 (stereo not given) | active: 20.6 µM
57 | CC(C)(C)NC(=O)c1cc(NC(=O)c2cccs2)cc(NC(=O)c2cccs2)c1 | inconclusive: 9.2 µM [falling, partial curve, poor fit]
58 | Cc1ccc(S(=O)(=O)n2nccc2-c2c(-c3ccc(Cl)cc3)noc2C)cc1 | inconclusive: 18.4 µM [falling, single point]
59 | Cc1cc(NC(=S)NC(=O)C2CC2)ccc1Br | inconclusive: 9.2 µM [activator, partial curve]
60 | Cc1cc(Br)ccc1NC(=O)c1cn(C2CCCC2)c(=O)c2c1c1ccccc1n2C | inconclusive: 14.6 µM [activator, single point]
61 | O=C(O)CCCc1nc(-c2ccccc2)no1 | inconclusive: 2.06 µM [falling, full curve, poor fit]
62 | CCc1ccccc1OCC(=O)Nc1cc(S(=O)(=O)N(CC)CC)ccc1N1CCOCC1 | inactive
63 | Cc1cc(C)c(C#N)c(SCC(=O)c2ccc(Cl)cc2Cl)n1 | inconclusive: 14.6 µM [falling, partial curve, poor fit]
64 | CC(=O)c1cc2c(cc1NC(=O)CN1CCN(c3cccc(C(F)(F)F)c3)CC1)OCO2 | inconclusive: 16.4 µM [falling, partial curve, poor fit]
65 | CCCn1c(NCc2ccc3c(c2)OCO3)nc2ccccc21 | inconclusive: 23.1 µM [activator, partial curve]
